Binding data for one substance are collected here from publication PMC10665427.

Results are given in words; binding and its absence hold for the method and conditions named.

This assay concerns the target T1, Lon^EQ (Lon E420Q, Walker-B mutant) (C. crescentus) (UniProt B8GX12).
T1 sequence: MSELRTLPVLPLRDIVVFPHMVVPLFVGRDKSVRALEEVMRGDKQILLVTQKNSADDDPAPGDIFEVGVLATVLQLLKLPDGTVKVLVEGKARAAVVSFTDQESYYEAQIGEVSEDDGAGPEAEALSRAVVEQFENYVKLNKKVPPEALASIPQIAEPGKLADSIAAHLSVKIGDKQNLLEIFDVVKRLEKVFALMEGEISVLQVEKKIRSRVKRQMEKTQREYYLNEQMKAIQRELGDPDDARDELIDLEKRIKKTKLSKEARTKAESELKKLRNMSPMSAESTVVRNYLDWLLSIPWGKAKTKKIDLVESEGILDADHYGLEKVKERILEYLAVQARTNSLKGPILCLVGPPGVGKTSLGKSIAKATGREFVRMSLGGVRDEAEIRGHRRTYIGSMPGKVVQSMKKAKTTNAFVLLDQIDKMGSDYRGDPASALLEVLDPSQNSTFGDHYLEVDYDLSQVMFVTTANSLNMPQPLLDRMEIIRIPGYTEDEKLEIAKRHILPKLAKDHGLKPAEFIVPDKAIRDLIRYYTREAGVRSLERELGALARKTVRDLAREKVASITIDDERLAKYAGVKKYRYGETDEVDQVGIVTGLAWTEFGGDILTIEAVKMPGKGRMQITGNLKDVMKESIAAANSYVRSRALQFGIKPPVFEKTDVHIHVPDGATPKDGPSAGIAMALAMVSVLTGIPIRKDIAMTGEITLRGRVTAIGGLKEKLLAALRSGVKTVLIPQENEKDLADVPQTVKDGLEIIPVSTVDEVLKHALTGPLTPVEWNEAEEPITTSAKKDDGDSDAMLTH
The assay is described as follows: native MS; purified proteins buffer exchanged into 200 mM ammonium acetate pH 8.0, mixed in equimolar ratios (LarA also in 3-fold excess); nano ESI, Waters Synapt G2, source temperature 30 °C; both purified.

For “LarA^Δ5, purified (C. crescentus) (domain or fragment)”, the binding result was “no binding”.
